Consider seven molecules from US20130116227A1, “BIARYL AMIDE DERIVATIVE OR PHARMACEUTICALLY ACCEPTABLE SALT THEREOF” (DAINIPPON SUMITOMO PHARMA CO., LTD., priority 2010, published 2013).

Sequences of proteins named here, by UniProt entry; tags and fusion partners are left off.
UniProt P22199, whole entry: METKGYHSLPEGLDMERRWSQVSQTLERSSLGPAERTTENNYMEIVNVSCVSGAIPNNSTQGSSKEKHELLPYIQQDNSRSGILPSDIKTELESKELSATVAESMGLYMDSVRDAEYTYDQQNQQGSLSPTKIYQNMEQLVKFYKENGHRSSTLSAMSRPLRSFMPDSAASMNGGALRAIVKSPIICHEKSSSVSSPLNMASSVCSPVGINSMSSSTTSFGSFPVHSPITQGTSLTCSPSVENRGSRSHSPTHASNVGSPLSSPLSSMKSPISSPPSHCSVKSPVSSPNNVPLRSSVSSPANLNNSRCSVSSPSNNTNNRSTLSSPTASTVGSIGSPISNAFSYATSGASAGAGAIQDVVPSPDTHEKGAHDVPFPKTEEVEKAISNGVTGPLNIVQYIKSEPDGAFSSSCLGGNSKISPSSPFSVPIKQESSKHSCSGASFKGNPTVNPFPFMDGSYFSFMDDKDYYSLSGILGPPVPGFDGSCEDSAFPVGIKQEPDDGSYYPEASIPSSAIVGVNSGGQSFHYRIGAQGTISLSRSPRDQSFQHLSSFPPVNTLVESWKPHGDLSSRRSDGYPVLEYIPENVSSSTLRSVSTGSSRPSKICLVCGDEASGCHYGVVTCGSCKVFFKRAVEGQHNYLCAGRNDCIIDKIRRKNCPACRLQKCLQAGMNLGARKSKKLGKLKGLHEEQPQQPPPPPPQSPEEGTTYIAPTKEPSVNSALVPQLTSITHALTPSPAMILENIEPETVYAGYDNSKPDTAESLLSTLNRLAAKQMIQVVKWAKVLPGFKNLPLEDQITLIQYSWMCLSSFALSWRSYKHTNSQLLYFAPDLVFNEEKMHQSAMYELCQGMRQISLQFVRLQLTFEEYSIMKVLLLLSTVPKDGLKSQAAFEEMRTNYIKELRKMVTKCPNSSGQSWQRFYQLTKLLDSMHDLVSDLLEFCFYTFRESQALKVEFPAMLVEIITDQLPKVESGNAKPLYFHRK

The target of the experiment is aldosterone receptor (Rattus norvegicus, UniProt P22199). The experiment can be described thus: Binding inhibition test for aldosterone receptor ([3H]aldosterone, rat renal soluble fraction). To be noted: read-out: MR IC50, [3H]aldosterone 2 nM, in the presence of 2 μM RU-486, 4° C. about 18 hours.

The structures given here were assigned with low confidence; some may be wrong.

Regarding `COCCNCc1cc(C(=O)Nc2ccc(S(C)(=O)=O)cc2)ccc1-c1ccccc1OC(F)(F)F`, the IC50 came out at 1300 nM.
Turning to `CS(=O)(=O)c1ccc(NC(=O)c2ccc(-c3ccccc3OC(F)(F)F)c(CNCc3ccco3)c2)cc1`, the IC50 was determined as 870 nM.
The same measure for `COCCNCc1cc(C(=O)Nc2ccc(S(N)(=O)=O)c(OC)c2)ccc1-c1ccccc1C(F)(F)F`: 410 nM; for `COCc1cc(C(=O)Nc2ccc(S(N)(=O)=O)c(OC)c2)ccc1-c1ccccc1-c1ccncc1`: < 10000 nM; for `COc1cc(NC(=O)c2ccc(-c3ccccc3C(F)(F)F)c(COCCN3CCOCC3)c2)ccc1S(N)(=O)=O`: 290 nM.
The same measure for `CS(=O)(=O)c1ccc(NC(=O)c2ccc(-c3ccccc3OC(F)(F)F)c(CNCc3nccs3)c2)cc1`: 390 nM.
The same measure for `COc1cc(NC(=O)c2ccc(-c3ccccc3C(F)(F)F)c(OCCN3CCCC3=O)c2)ccc1S(N)(=O)=O`: 3600 nM.

In general, IC50 refers to the concentration that gives 50% inhibition.
